{"sequences": {"note": "Chains of the proteins cited; added tags and fusions are not shown. Residues count along the entry.", "UniProt P27958, residues 384-746": "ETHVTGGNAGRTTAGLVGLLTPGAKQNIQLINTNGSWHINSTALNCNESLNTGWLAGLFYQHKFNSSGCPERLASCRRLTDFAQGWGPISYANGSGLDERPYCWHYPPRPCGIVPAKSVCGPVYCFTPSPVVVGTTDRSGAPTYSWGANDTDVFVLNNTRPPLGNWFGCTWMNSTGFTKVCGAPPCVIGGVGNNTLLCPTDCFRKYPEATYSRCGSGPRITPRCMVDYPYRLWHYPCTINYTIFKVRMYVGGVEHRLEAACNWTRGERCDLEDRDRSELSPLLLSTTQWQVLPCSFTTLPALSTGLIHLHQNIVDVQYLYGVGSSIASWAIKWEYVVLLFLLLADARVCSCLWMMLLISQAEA"}, "source": "paper PMC5749897", "biological_target": "E2 on purified HCV pseudoparticles (HCVpp) (hepatitis C virus genotype 1a, strain H77) (UniProt P27958)", "test": "non-reducing and reducing SDS-PAGE with immunoblot", "note": "No constants are given. Whether binding was seen depends on the method and setting. Some results given as binding are weak or reduced against the parent protein; the word gives no strength.", "data": [{"substance": "E2 on purified HCV pseudoparticles (HCVpp) (from UniProt P27958 384-746)", "values": [{"measurement": "binding", "result": "binds"}]}]}
